Reference: patent publication US20210060320A1, “TRANSDERMAL DRUG DELIVERY SYSTEM AND METHOD FOR USING SAME” (NICHIBAN CO., LTD., priority 2017, published 2021)

Details: pH 8
Source text: Note that in the present invention, as an index of the “water solubility” in a “water-soluble drug” or a “water-soluble steroid”, a distribution coefficient (octanol/water distribution coefficient) can be employed. The distribution coefficient can be expressed by log D by taking into consideration of the influence of pH, and the water solubility is indicated by a minus value, while the liposolubility lipophilicity is indicated by a plus value.
The distribution coefficient can be obtained in accordance with the method described in JIS Z7260-107 or […].

For `C[C@H]1C[C@H]2[C@@H]3CCC4=CC(=O)C=C[C@]4(C)[C@@]3(F)[C@@H](O)C[C@]2(C)[C@@]1(O)C(=O)COP(=O)([O-])[O-].[Na+].[Na+]` [betamethasone sodium phosphate], the “distribution coefficient (log D)” value was −5.
